Experimental data as given in PMC8134551.
No constants are given. Whether binding was seen depends on the method and setting. Binding seen in cells or lysates may run through a third protein. Some binding calls cover weakened binding; strength is not graded here.

Chains of the proteins cited; added tags and fusions are not shown.
UniProt O95817: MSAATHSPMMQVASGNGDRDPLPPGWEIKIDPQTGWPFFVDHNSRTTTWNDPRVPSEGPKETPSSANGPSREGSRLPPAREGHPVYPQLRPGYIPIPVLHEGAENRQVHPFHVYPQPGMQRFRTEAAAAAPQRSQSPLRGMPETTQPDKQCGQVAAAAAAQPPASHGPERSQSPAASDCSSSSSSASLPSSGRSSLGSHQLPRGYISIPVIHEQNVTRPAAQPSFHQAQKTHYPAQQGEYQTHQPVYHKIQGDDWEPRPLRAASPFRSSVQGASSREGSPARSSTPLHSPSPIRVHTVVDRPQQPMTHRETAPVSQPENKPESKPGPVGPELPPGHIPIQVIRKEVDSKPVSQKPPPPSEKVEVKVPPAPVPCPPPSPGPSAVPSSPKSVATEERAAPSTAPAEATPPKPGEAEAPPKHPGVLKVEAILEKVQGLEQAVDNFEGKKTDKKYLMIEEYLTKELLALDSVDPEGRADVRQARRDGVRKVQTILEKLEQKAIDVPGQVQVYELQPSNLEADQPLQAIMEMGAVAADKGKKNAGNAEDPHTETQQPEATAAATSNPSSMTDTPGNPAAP

Key:
[1] = biological target: T1, HSPB8 (human (endogenous in left ventricle tissue)) (UniProt Q9UJY1); assay: co-IP; reciprocal co-immunoprecipitation from human LV myofilament-enriched protein lysate with antibody crosslinked to Dynabeads Protein G; non-specific IgG control; western blot
T1 sequence: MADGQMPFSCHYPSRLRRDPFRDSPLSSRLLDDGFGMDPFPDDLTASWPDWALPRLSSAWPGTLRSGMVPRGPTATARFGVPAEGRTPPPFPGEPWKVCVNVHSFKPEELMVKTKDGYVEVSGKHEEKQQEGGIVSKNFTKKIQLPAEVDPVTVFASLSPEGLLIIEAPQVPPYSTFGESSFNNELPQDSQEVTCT

[2] = biological target: Bcl2-associated athanogene 3 (BAG3) (human (endogenous in left ventricle tissue)) (UniProt O95817); assay: as above

For “Bcl2-associated athanogene 3 (BAG3) (from UniProt O95817 1-575)”, the binding [1] was “binds”.

B1: HSPB8 (protein, UniProt Q9UJY1 1-196)
chain: T1 sequence
In the case of B1, the binding [2] is reported as “binds”.
